Data: publication PMC7527988
Results are given in words; binding and its absence hold for the method and conditions named. Some entries that bind do so weakly or less than the wild type.

Protein sequences, listed by entry. Tags and fused reporters are not part of them.
UniProt P0A9A6: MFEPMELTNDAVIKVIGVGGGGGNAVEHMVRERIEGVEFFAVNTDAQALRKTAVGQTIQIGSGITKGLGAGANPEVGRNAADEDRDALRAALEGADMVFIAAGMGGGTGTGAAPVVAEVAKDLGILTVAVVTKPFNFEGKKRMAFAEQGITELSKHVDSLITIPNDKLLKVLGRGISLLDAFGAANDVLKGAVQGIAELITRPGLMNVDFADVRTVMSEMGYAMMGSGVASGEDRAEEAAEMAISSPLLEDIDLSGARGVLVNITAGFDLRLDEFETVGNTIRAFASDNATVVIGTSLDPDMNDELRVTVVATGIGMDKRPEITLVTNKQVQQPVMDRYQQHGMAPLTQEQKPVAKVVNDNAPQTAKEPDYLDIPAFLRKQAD

What was measured:
[1] = target: T1, cell-free synthesized FtsA (E. coli) (UniProt P0ABH0); assay: recruitment to a supported lipid bilayer, fluorescence microscopy; FtsA expressed in PUREfrex2.0 directly on the SLB (DOPC/DOPG/DGS-NTA); 3 µM purified FtsZ-A647 added; 2 mM GTP, 2 mM ATP; with or without Ficoll70 or cell-free synthesized ZapA; spinning disk microscopy at room temperature; only the binder purified
T1 sequence: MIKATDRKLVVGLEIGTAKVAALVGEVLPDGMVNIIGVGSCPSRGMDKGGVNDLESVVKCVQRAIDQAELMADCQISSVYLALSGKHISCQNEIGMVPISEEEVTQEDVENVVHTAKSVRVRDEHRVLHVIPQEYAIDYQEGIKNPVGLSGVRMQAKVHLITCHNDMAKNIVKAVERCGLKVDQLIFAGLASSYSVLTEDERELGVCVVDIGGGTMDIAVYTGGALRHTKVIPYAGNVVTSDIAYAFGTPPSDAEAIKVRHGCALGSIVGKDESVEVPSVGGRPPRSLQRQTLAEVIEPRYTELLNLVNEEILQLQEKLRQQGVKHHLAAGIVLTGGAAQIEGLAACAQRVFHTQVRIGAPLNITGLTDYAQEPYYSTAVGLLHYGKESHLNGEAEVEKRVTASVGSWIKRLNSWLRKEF

[2] = target: T1, cell-free synthesized FtsA (E. coli); assay: recruitment to the liposome membrane, confocal fluorescence microscopy; ftsAopt expressed in PUREfrex2.0 inside liposomes (DOPC/DOPE/DOPG/CL) with 3 µM purified FtsZ-A647, 2 mM GTP, 2 mM ATP; 37 °C, 1.5-6 h; control without the ftsAopt gene: FtsZ only in the lumen; only the binder purified

- binding [1]: binds
- binding [2]: binds
Substance: FtsZ labelled with Alexa Fluor 647 (from UniProt P0A9A6 1-383)
